Measured values published in PubChem BioAssay AID720514 (Broad Institute, 2013).
In all, about 2,100 compounds went through this assay and about 300 (14%) were called active. This list was built around the results that the source calls inconclusive (neither active nor inactive); the mix of calls is not that of the screen.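 How the source made its calls: active means every replicate test run called active, with the signal falling and half-maximal concentration within twice the top valid dose; inconclusive means the replicate test runs disagree in their calls; inactive means every test run inactive, including effects in the opposite direction.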

test: inhibitors of PGC1a acetylation in cells, dose response, cell-based, cherry-picked samples (AID 720514); conditions: U2OS PGC1a acetylation, AlphaLISA, overnight; at 19.5 µM (top of the series) unless noted;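 further: 0% = neutral control wells and -100% = positive control wells; actives lower the acetylation signal so they count as inhibitors of PGC1a acetylation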

Activity change, negative = inhibition, inactive:
Cn1cc(-c2ccc(C(=O)NCc3cccc(Cl)c3)c3occc23)cn1 72.5%, Cc1ccc(S(=O)(=O)N(Cc2ccc(F)cc2)Cc2ccco2)cc1 84.4%, CCOC(=O)C1=C[C@@H](C(C)(C)C)N(S(=O)(=O)c2ccc(C)cc2)[C@H]1c1cccc2ccccc12 111%, COc1ccccc1-c1ccc2c(c1)C(C)(Cc1ccc(OC(F)(F)F)cc1)C(=O)N2 (centres undefined) 41.4%, Cc1cccc(S(=O)(=O)N(C)C[C@@H]2OCc3cn(nn3)CCCC(=O)N([C@H](C)CO)C[C@H]2C)c1 7.15%, O=C(CSc1nc2ccccc2c(=O)n1CC1CCCO1)N1CCN(c2ccccc2)CC1 (centres undefined) 30.9%

Activity change, negative = inhibition, inconclusive:
Cc1nn(C)c(C)c1N1C(=O)c2cccc3c(Br)ccc(c23)C1=O -20.6%, CN(Cc1ccccc1)C(=O)c1ccc2c(c1)NC(=O)C(N1CCOCC1)S2 (centres undefined) -37.4%, O=C(c1ccco1)N1CCN(c2ncnc3scc(-c4cccs4)c23)CC1 -40.8%, COc1ccc2c(-c3ccccc3)cc(=O)[nH]c2c1 5.67%, CN(C)CCNc1oc(COc2ccc(-c3ccccc3)cc2)nc1C#N -99.8%, CC(C)CC#Cc1cnc2c(c1)C(=O)N([C@@H](C)CO)C[C@@H](C)[C@H](CN(C)C(=O)c1ccccc1)O2 -31.3%, Nc1cc(N)nc(SCC(=O)Nc2ccccc2N2CCOCC2)n1 -30.2%, C[C@H](CO)N1C[C@H](C)[C@H](CN(C)Cc2ccncc2)OCc2cn(nn2)CCCC1=O 25.1% [at 21 µM]
